{"source": "the supplement of paper PMC8728848", "binders": {"B1": {"name": "S100A12 (Homo sapiens), P80511 (protein)", "chain": "MTKLEEHLEGIVNIFHQYSVRKGHFDTLSKGELKQLLTKELANTIKNIKDKAVIDEIFQGLDANQDEQVDFQEFISLVAIALKAAHYHTHKE"}}, "assay_in_all_cases": "glycan array binding signal (z-score within array); higher = stronger binding", "settings_in_all_cases": "glycan notation: IUPAC condensed, linker removed", "key": {"[1]": {"target": "Fuc(a1-3)[Gal3S(b1-4)]Glc", "summary_of_the_method": "(§1)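 Glycan array binding is given as a within-array Z-score, which can be read as non-binding when negative. The arrays, 3228 of them, came from the Consortium for Functional Glycomics database and were retained only where the protein sequence was available. Z-scores were averaged across arrays of the same protein sequence at different concentrations or buffers and across linkers.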"}, "[2]": {"target": "Fuc(a1-3)[Gal3S(b1-4)]Glc6S", "summary_of_the_method": "as §1"}, "[3]": {"target": "Fuc(a1-3)[Gal3S(b1-4)]GlcNAc", "summary_of_the_method": "as §1"}, "[4]": {"target": "Fuc(a1-3)[Gal3S(b1-4)]GlcNAc6S", "summary_of_the_method": "as §1"}, "[5]": {"target": "Fuc(a1-3)[GalNAc(b1-4)]Gal(b1-4)GlcNAc", "summary_of_the_method": "as §1"}, "[6]": {"target": "Fuc(a1-3)[GalNAc(b1-4)]GlcNAc", "summary_of_the_method": "as §1"}, "Fuc(a1-4)GlcNAc": {"target": "Fuc(a1-4)GlcNAc", "summary_of_the_method": "as §1"}, "Fuc(b1-3)GlcNAc": {"target": "Fuc(b1-3)GlcNAc", "summary_of_the_method": "as §1"}, "Gal(a1-2)Gal": {"target": "Gal(a1-2)Gal", "summary_of_the_method": "as §1"}, "Gal(a1-3)Gal": {"target": "Gal(a1-3)Gal", "summary_of_the_method": "as §1"}, "Gal(a1-3)Gal(b1-3)Glc": {"target": "Gal(a1-3)Gal(b1-3)Glc", "summary_of_the_method": "as §1"}, "Gal(a1-3)Gal(b1-3)GlcNAc": {"target": "Gal(a1-3)Gal(b1-3)GlcNAc", "summary_of_the_method": "as §1"}, "Gal(a1-3)Gal(b1-4)Glc": {"target": "Gal(a1-3)Gal(b1-4)Glc", "summary_of_the_method": "as §1"}, "Gal(a1-3)Gal(b1-4)GlcNAc": {"target": "Gal(a1-3)Gal(b1-4)GlcNAc", "summary_of_the_method": "as §1"}, "[7]": {"target": "Gal(a1-3)Gal(b1-4)[Fuc(a1-3)]GalNAc", "summary_of_the_method": "as §1"}, "[8]": {"target": "Gal(a1-3)Gal(b1-4)[Fuc(a1-3)]GlcNAc", "summary_of_the_method": "as §1"}, "Gal(a1-3)GalNAc": {"target": "Gal(a1-3)GalNAc", "summary_of_the_method": "as §1"}, "Gal(a1-3)GlcNAc": {"target": "Gal(a1-3)GlcNAc", "summary_of_the_method": "as §1"}, "[9]": {"target": "Gal(a1-3)[Gal(a1-4)]Gal(b1-4)GlcNAc", "summary_of_the_method": "as §1"}, "Gal(a1-4)Gal(b1-4)Gal": {"target": "Gal(a1-4)Gal(b1-4)Gal", "summary_of_the_method": "as §1"}, "Gal(a1-4)Gal(b1-4)GalNAc": {"target": "Gal(a1-4)Gal(b1-4)GalNAc", "summary_of_the_method": "as §1"}, "Gal(a1-4)Gal(b1-4)Glc": {"target": "Gal(a1-4)Gal(b1-4)Glc", "summary_of_the_method": "as §1"}, "Gal(a1-4)Gal(b1-4)GlcNAc": {"target": "Gal(a1-4)Gal(b1-4)GlcNAc", "summary_of_the_method": "as §1"}, "Gal(a1-4)GlcNAc": {"target": "Gal(a1-4)GlcNAc", "summary_of_the_method": "as §1"}, "Gal(a1-6)Glc": {"target": "Gal(a1-6)Glc", "summary_of_the_method": "as §1"}, "Gal(b1-2)Gal": {"target": "Gal(b1-2)Gal", "summary_of_the_method": "as §1"}, "Gal(b1-3)Gal": {"target": "Gal(b1-3)Gal", "summary_of_the_method": "as §1"}, "Gal(b1-3)GalNAc": {"target": "Gal(b1-3)GalNAc", "summary_of_the_method": "as §1"}, "[10]": {"target": "Gal(b1-3)GalNAc(b1-3)Gal(a1-4)Gal(b1-4)Glc", "summary_of_the_method": "as §1"}, "[11]": {"target": "Gal(b1-3)GalNAc(b1-3)Gal(b1-4)Glc", "summary_of_the_method": "as §1"}, "[12]": {"target": "Gal(b1-3)GalNAc(b1-3)Gal(b1-4)GlcNAc", "summary_of_the_method": "as §1"}, "[13]": {"target": "Gal(b1-3)GalNAc(b1-4)Gal(b1-4)Glc", "summary_of_the_method": "as §1"}, "[14]": {"target": "Gal(b1-3)GalNAc(b1-4)[Neu5Ac(a2-3)]Gal(b1-4)Glc", "summary_of_the_method": "as §1"}, "Gal(b1-3)GlcNAc": {"target": "Gal(b1-3)GlcNAc", "summary_of_the_method": "as §1"}, "[15]": {"target": "Gal(b1-3)GlcNAc(b1-3)Gal(b1-3)GlcNAc", "summary_of_the_method": "as §1"}, "[16]": {"target": "Gal(b1-3)GlcNAc(b1-3)Gal(b1-4)Glc", "summary_of_the_method": "as §1"}, "[17]": {"target": "Gal(b1-3)GlcNAc(b1-3)Gal(b1-4)GlcNAc", "summary_of_the_method": "as §1"}, "[18]": {"target": "Gal(b1-3)[Fuc(a1-4)]GlcNAc", "summary_of_the_method": "as §1"}, "[19]": {"target": "Gal(b1-3)[Fuc(a1-4)]GlcNAc(b1-3)Gal(b1-3)[Fuc(a1-4)]GlcNAc", "summary_of_the_method": "as §1"}, "[20]": {"target": "Gal(b1-3)[Fuc(a1-4)]GlcNAc(b1-3)Gal(b1-4)GlcNAc", "summary_of_the_method": "as §1"}, "[21]": {"target": "Gal(b1-3)[Fuc(a1-4)]GlcNAc(b1-3)Gal(b1-4)[Fuc(a1-3)]GlcNAc", "summary_of_the_method": "as §1"}, "[22]": {"target": "Gal(b1-3)[GlcNAc(b1-6)]GalNAc", "summary_of_the_method": "as §1"}, "[23]": {"target": "Gal(b1-3)[GlcNAc(b1-6)]GlcNAc", "summary_of_the_method": "as §1"}, "[24]": {"target": "Gal(b1-3)[Neu5Ac(a2-6)]GalNAc", "summary_of_the_method": "as §1"}, "[25]": {"target": "Gal(b1-3)[Neu5Ac(a2-6)]GlcNAc", "summary_of_the_method": "as §1"}}, "note": "The list shows a part of the results."}
{"binder": "B1", "values": [{"measurement": "glycan array binding signal (z-score)", "setting": "[1]", "result": -0.478}, {"measurement": "glycan array binding signal (z-score)", "setting": "[2]", "result": 0.196}, {"measurement": "glycan array binding signal (z-score)", "setting": "[3]", "result": -0.314}, {"measurement": "glycan array binding signal (z-score)", "setting": "[4]", "result": 1.46}, {"measurement": "glycan array binding signal (z-score)", "setting": "[5]", "result": -0.441}, {"measurement": "glycan array binding signal (z-score)", "setting": "[6]", "result": -0.602}, {"measurement": "glycan array binding signal (z-score)", "setting": "Fuc(a1-4)GlcNAc", "result": -0.046}, {"measurement": "glycan array binding signal (z-score)", "setting": "Fuc(b1-3)GlcNAc", "result": -0.352}, {"measurement": "glycan array binding signal (z-score)", "setting": "Gal(a1-2)Gal", "result": 0.006}, {"measurement": "glycan array binding signal (z-score)", "setting": "Gal(a1-3)Gal", "result": -0.12}, {"measurement": "glycan array binding signal (z-score)", "setting": "Gal(a1-3)Gal(b1-3)Glc", "result": -0.158}, {"measurement": "glycan array binding signal (z-score)", "setting": "Gal(a1-3)Gal(b1-3)GlcNAc", "result": -0.683}, {"measurement": "glycan array binding signal (z-score)", "setting": "Gal(a1-3)Gal(b1-4)Glc", "result": -1.47}, {"measurement": "glycan array binding signal (z-score)", "setting": "Gal(a1-3)Gal(b1-4)GlcNAc", "result": -0.667}, {"measurement": "glycan array binding signal (z-score)", "setting": "[7]", "result": -0.451}, {"measurement": "glycan array binding signal (z-score)", "setting": "[8]", "result": -1.07}, {"measurement": "glycan array binding signal (z-score)", "setting": "Gal(a1-3)GalNAc", "result": -0.788}, {"measurement": "glycan array binding signal (z-score)", "setting": "Gal(a1-3)GlcNAc", "result": -0.251}, {"measurement": "glycan array binding signal (z-score)", "setting": "[9]", "result": -0.604}, {"measurement": "glycan array binding signal (z-score)", "setting": "Gal(a1-4)Gal(b1-4)Gal", "result": 0.185}, {"measurement": "glycan array binding signal (z-score)", "setting": "Gal(a1-4)Gal(b1-4)GalNAc", "result": -0.119}, {"measurement": "glycan array binding signal (z-score)", "setting": "Gal(a1-4)Gal(b1-4)Glc", "result": 0.145}, {"measurement": "glycan array binding signal (z-score)", "setting": "Gal(a1-4)Gal(b1-4)GlcNAc", "result": -0.446}, {"measurement": "glycan array binding signal (z-score)", "setting": "Gal(a1-4)GlcNAc", "result": -0.268}, {"measurement": "glycan array binding signal (z-score)", "setting": "Gal(a1-6)Glc", "result": 0.773}, {"measurement": "glycan array binding signal (z-score)", "setting": "Gal(b1-2)Gal", "result": -0.083}, {"measurement": "glycan array binding signal (z-score)", "setting": "Gal(b1-3)Gal", "result": -0.262}, {"measurement": "glycan array binding signal (z-score)", "setting": "Gal(b1-3)GalNAc", "result": -0.254}, {"measurement": "glycan array binding signal (z-score)", "setting": "[10]", "result": -0.547}, {"measurement": "glycan array binding signal (z-score)", "setting": "[11]", "result": -0.286}, {"measurement": "glycan array binding signal (z-score)", "setting": "[12]", "result": -0.39}, {"measurement": "glycan array binding signal (z-score)", "setting": "[13]", "result": -0.592}, {"measurement": "glycan array binding signal (z-score)", "setting": "[14]", "result": -0.75}, {"measurement": "glycan array binding signal (z-score)", "setting": "Gal(b1-3)GlcNAc", "result": -0.781}, {"measurement": "glycan array binding signal (z-score)", "setting": "[15]", "result": -0.702}, {"measurement": "glycan array binding signal (z-score)", "setting": "[16]", "result": -0.959}, {"measurement": "glycan array binding signal (z-score)", "setting": "[17]", "result": -0.762}, {"measurement": "glycan array binding signal (z-score)", "setting": "[18]", "result": -0.707}, {"measurement": "glycan array binding signal (z-score)", "setting": "[19]", "result": -0.544}, {"measurement": "glycan array binding signal (z-score)", "setting": "[20]", "result": -0.319}, {"measurement": "glycan array binding signal (z-score)", "setting": "[21]", "result": -0.056}, {"measurement": "glycan array binding signal (z-score)", "setting": "[22]", "result": -0.516}, {"measurement": "glycan array binding signal (z-score)", "setting": "[23]", "result": -0.491}, {"measurement": "glycan array binding signal (z-score)", "setting": "[24]", "result": -0.459}, {"measurement": "glycan array binding signal (z-score)", "setting": "[25]", "result": -0.34}]}
